A short description of series [1]: pH stability of barium pantethine-4′,4″-diphosphate, pantethine and calcium pantetheine-5-sulfonate (Example 1). As to conditions: 0.1% (w/v) in 50 mM buffer, 40° C. for 6 months, diphosphate tested as barium salt.
The conditions of series [2]: 0.1% (w/v) in 50 mM buffer, 40° C. for 6 months.
The nature of series [3]: pH stability of pantethine-4′,4″-diphosphate, pantethine-4′-phosphate and pantethine (Example 2). Conditions: 0.1% (w/v) in 50 mM buffer, 40° C. for 3 months, diphosphate tested as sodium salt.
Setting [4] is: pH 4 or lower, or pH 6.5 or higher.

Like-named read-outs stand apart in the source and are kept apart here.

The source of these data is patent US20120189566A1 (DAIICHI FINE CHEMICAL CO., LTD., priority 2009, published 2012).

Turning to `CC(C)(CO)[C@@H](O)C(=O)NCCC(=O)NCCSSCCNC(=O)CCNC(=O)[C@H](O)C(C)(C)CO` [Pantethine, pantethine], the “stability (content by HPLC before and after heating)” value in series [1] (between pH 5 and 6) was “stable”; in series [1] (setting [4]) it was “clearly degraded”; in series [2] (between pH 5 and 6), “no difference in stability”; in series [2] (setting [4]), “clearly degraded”; in series [3] (pH 4 or lower, or pH 7 or higher), “clearly degraded”; in series [3] (pH between 5 and 6), “no difference in stability”.
